Assay results from US20250375420A1 (ZYLORION HEALTH INC., priority 2022, published 2025).
For at least one compound, name, drawing or mass did not settle the structure. Some of these results come from one statement about several compounds together.

By UniProt entry, the sequences of proteins in these tests, tags left out.
UniProt P28223, whole entry: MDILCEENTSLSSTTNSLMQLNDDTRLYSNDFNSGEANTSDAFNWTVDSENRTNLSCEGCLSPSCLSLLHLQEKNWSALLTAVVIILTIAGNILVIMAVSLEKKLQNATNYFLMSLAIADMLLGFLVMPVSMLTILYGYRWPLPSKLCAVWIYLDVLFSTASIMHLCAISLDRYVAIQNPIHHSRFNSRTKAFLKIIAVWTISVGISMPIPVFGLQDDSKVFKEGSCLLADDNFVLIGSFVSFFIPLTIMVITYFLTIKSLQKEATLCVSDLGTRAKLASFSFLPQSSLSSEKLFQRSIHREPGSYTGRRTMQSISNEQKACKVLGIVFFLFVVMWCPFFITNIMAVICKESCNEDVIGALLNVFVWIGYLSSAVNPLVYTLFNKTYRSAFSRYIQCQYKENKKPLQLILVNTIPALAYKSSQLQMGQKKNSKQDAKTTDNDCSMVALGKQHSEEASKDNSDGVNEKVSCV

Key:
[1] = tested on: C57BL/6 mice; assay: Head-twitch response (HTR); format: in vivo, mouse; settings: i.p.; for time of peak head-twitch effect post-compound administration: at several tested doses
Method: C57BL/6 mice were treated with increasing doses of compounds as indicated via i.p. injection. Mice were placed inside a clear cylinder and video recorded for 10 min immediately after compound administration. Head-twitch was recorded by an individual blinded to treatment as a lateral, rhythmic shaking of the head distinct from grooming or vertical head nod. Data were plotted in GraphPad (v. 9). n≥3 animals per dose. Data are expressed as mean±SEM.

[2] = tested on: C57BL/6 mice; assay: Open field task (OFT); format: in vivo, mouse; settings: i.p., 30 min after administration; significant for movement and velocity, not time in center, at 7 or 10 mg/kg
Method: C57BL/6 mice were treated with increasing doses of compounds as indicated via i.p. injection. Mice are placed in the open field 30 min after compound administration. The open field measures 1 m×1 m and the test lasts for 5 min. Total distance travelled, velocity, and time spent in the central quadrant of the field are recorded and analyzed using Etho Vision XT (Noldus, v. 17). Data were plotted in GraphPad (v. 9). n≥4 animals per dose. Data are expressed as mean±SEM.

[3] = target: T1, h5HT2a (Homo sapiens, UniProt P28223); format: cell-based; set-up: expressed in transfected cells; host or cells: CHO-K1
[4] = target: T1, h5HT2a; format: cell-based; set-up: expressed in transfected cells; host or cells: CHO-K1 (AequoScreen line with aequorin in A1; membranes of stably expressing CHO-K1 cells in A3); settings: h5HT2a-dependent Ca2+ release
[5] = tested on: C57BL/6 mice; assay: Body temperature relative to baseline (rectal thermometer); format: in vivo, mouse; settings: i.p., increasing doses, 20 min after administration
Method: Compound activity was quantified in C57BL/6 mice for catalepsy (10 min) (top), nociception in the tail flick latency test (15 min) (middle), and body temperature relative to baseline (20 min) (bottom).
C57BL/6 mice were treated with increasing doses of compounds as indicated via i.p. injection. Tests were as follows: Body temperature is taken before administration of the first dose of compound for baseline. Catalepsy—the bar holding assay, 10 min after compound administration. Mice are placed such that their forepaws clasp a 0.7 cm ring clamp positioned 4.5 cm above the surface of the testing space. The length of time the ring is held is recorded (sec). The trial is ended if the mouse turns its head or body, or makes 3 consecutive escape attempts, to a maximum of 60 sec. Nociception—15 min after compound administration the mouse's tail is placed in 52° C. water. Latency to remove the tail from water is recorded to a maximum of 20 sec. Body temperature—rectal thermometer 20 min after compound administration. Data were plotted in GraphPad (v. 9). n≥6 animals per dose. Data are expressed as mean±SEM.

| SMILES | time of peak head-twitch effect post-compound administration [1] [min] | movement, velocity and time in the center of the open field [2] | potency in Ca2+ release assay compared with βarrestin2 recruitment assay ([3]; comparison of the two h5HT2a assays) | βarrestin2 recruitment activity (in words) ([3]; h5HT2a-dependent βarrestin2 recruitment) | Ca2+ release activity (in words) [4] | head-twitch response ([1]; 0-10 min after administration) | body temperature [5] |
| --- | --- | --- | --- | --- | --- | --- | --- |
| CN(C)CCc1c[nH]c2cccc(O)c12 [Psilocin] | 3 to 4 |  |  |  |  |  |  |
| CN(C)CCc1c[nH]c2cccc(OP(=O)(O)O)c12 [Psilocybin] | 3 to 4 | dose-dependent decrease in movement, velocity, and time in the center of the open field | greater in the Ca^2+ release assay than the βarrestin2 recruitment assay | not potent or efficacious | demonstrably less potent and efficacious | time-dependent head-twitch response | dose-dependent hypothermia |
